Patent US20180319883A1 (Stanford University, published 2018)
Results are given in words; binding and its absence hold for the method and conditions named. Some entries that bind do so weakly or less than the wild type.

Sequences of proteins named here, by UniProt entry; tags and fusion partners are left off. Residues count along the entry.
UniProt P78324, residues 31-148: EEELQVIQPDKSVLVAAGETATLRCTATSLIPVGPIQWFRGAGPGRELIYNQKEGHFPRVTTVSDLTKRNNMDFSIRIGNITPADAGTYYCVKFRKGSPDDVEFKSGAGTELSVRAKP

Molecular target: human SIRPα displayed on yeast (human) (UniProt P78324)
Assay: FACS on yeast expressing hSIRPα

B1: CD20 BiME, anti-CD20/anti-SIRPα dual-variable-domain immunoglobulin (DVD-Ig) (bispecific antibody)
VH: QVQLQQPGAELVKPGASVKMSCKASGYTFTSYNMHWVKQTPGRGLEWIGAIYPGNGDTSYNQKFKGKATLTADKSSSTAYMQLSSLTSEDSAVYYCARSTYYGGDWYFNVWGAGTTVTVSSASTKGPEVQLQQSGAELVKPGASVKLSCTASGFNIKDYYIHWVQQRTEQGLEWIGRIDPEDGETKYAPKFQDKATITADTSSNTAYLHLSSLTSEDTAVYYCARWGAYWGQGTLVTVSS
VL: QIVLSQSPAILSASPGEKVTMTCRASSSVSYIHWFQQKPGSSPKPWIYATSNLASGVPVRFSGSGSGTSYSLTISRVEAEDAATYYCQQWTSNPPTFGGGTKLEIKRTVAAPQIVLTQSPAIMSASPGEKVTLTCSASSSVSSSYLYWYQQKPGSSPKLWIYSTSNLASGVPARFSGSGSGTSYSLTISSMEAEDAASYFCHQWSSYPRTFGAGTKLELK
For B1, the binding was “binds”.
